Inconclusive means that the source gave no clear call. Such entries were picked first, then a sample of the others. Where the call is inconclusive, the potency comes from a doubtful curve fit. Calls of active or inactive are those of the source. Unless noted, calls come from the whole dose curve; as a rule, active = well fitted curve in the direction sought with a large enough effect; inconclusive = small, poorly fitted or top-dose-only effect, or another doubt; inactive = no such curve, though single readings can be large; an effect the other way counts as inactive or inconclusive.
assay: Cytotoxicity counterscreen for NFkB agonists and antagonists (AID 624476); conditions: NFkB reporter cell line viability counterscreen; series mostly up to 46.1 µM; activity change, negative = cytotoxicity: at the top concentration;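 note: cells exposed to compound for 48 hours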; note: potency is the fitted concentration of half-maximal effect; for activity change, negative = cytotoxicity: % is set by controls: 0 for no effect and ±100 for the full control effect

Compound	Potency	activity change, negative = cytotoxicity
COc1cc2c(Oc3ccc4[nH]c(C)cc4c3F)ncnc2cc1OCCCN1CCCC1	inconclusive: 37.2 µM [inhibitor, single point]	–
CN1CC[C@@H](c2c(O)cc(O)c3c(=O)cc(-c4ccccc4Cl)oc23)[C@@H](O)C1	active: 0.132 µM	–
COC(=O)c1ccc2c(C(=Nc3ccc(N(C)C(=O)CN4CCN(C)CC4)cc3)c3ccccc3)c(O)[nH]c2c1	active: 23.5 µM	–
Nc1nc(Nc2ccc(S(N)(=O)=O)cc2)nn1C(=O)c1c(F)cccc1F	active: 9.35 µM	–
CC[C@@H]1C(=O)N(C)c2cnc(Nc3ccc(C(=O)NC4CCN(C)CC4)cc3OC)nc2N1C1CCCC1	active: 16.6 µM	–
c1ccc2c(CCNc3ccc(Nc4ccncc4)cc3)c[nH]c2c1	–	inactive: -25.4%
CS(=O)(=O)c1ccc(C(=O)Nc2ccc(Cl)c(-c3ccccn3)c2)c(Cl)c1	–	inactive: 0.858%
N#CCNC(=O)c1ccc(-c2ccnc(Nc3ccc(N4CCOCC4)cc3)n2)cc1	inconclusive: 26.4 µM [inhibitor, single point]	–
CC1(CN2CCC(n3c(=O)[nH]c4ccccc43)CC2)OCc2ccccc2-n2cccc21 (centres undefined)	inconclusive: 37.2 µM [inhibitor, single point]	–
CCOc1cc(N2CCC(O)CC2)ccc1Nc1ncc2c(n1)N(C)c1ccccc1C(=O)N2C	–	inactive: -10.9%
CC(C)Oc1cc(Nc2nc(N[C@@H](C)c3ccc(F)cn3)ncc2Cl)[nH]n1	active: 2.96 µM	–
Cc1c(C)c2c(c(C)c1O)CCC(C)(COc1ccc(CC3SC(=O)NC3=O)cc1)O2 (centres undefined)	inconclusive: 26.4 µM [inhibitor, single point]	–
Cc1nn(Cc2ccccc2Cl)c(C)c1CN(C)CC(O)COc1ccc(Cl)cc1 (centres undefined)	–	inactive: -10.3%
C#Cc1cccc(Nc2ncnc3cc(OCCOC)c(OCCOC)cc23)c1	inconclusive: 1.05 µM [inhibitor, full curve]	–
Nc1ncn([C@@H]2O[C@H](CO)[C@@H](O)[C@H]2O)c(=O)n1	inconclusive: 20.9 µM [inhibitor, partial curve, poor fit]	–
Cc1cc(SCc2sc(-c3ccc(C(F)(F)F)cc3)nc2C)ccc1OCC(=O)O	inconclusive: 29.6 µM [inhibitor, single point]	–
Cc1cc([C@@H](C)Nc2ccccc2C(=O)O)c2nc(N3CCOCC3)cc(=O)n2c1	inconclusive: 13.2 µM [inhibitor, partial curve]	–
CCN(CC)CCCCNc1ncc2cc(-c3cc(OC)cc(OC)c3)c(NC(=O)NC(C)(C)C)nc2n1	inconclusive: 37.2 µM [inhibitor, partial curve, poor fit]	–
CN(C)CCN(C)C(=O)c1ccc(NC(=O)Nc2ccc(-c3nc(N4CCOCC4)c4ccn(CC(F)(F)F)c4n3)cc2)cc1	active: 4.18 µM	–
Fc1cc(-c2cccc3ncc(-c4cnn(C5CCNCC5)c4)nc23)cc(F)c1CN1CCOCC1	inconclusive: 29.6 µM [inhibitor, single point]	–
CCC(C)n1ncn(-c2ccc(N3CCN(c4ccc(OCC5COC(Cn6cncn6)(c6ccc(Cl)cc6Cl)O5)cc4)CC3)cc2)c1=O (centres undefined)	–	inactive: -53.4%
Cc1ccc(C(N)=O)cc1Nc1nccc(-c2cn(C(C)C)c3cnccc23)n1	inconclusive: 14.8 µM [inhibitor, partial curve]	–

assay: qHTS Assay for Identification of Small Molecule Agonists for NFkB Signaling Pathway. (AID 624478); conditions: NFkB pathway reporter cell assay, agonist mode, cells co-stimulated with 10 pM TNF alpha; series mostly up to 46.1 µM; activation: at the top concentration;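 for activation: compounds tested together with TNF alpha at its EC50 of 10 pM; 0% is about no effect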
Outline: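 Read-out: 460/530 nm emission at 405 nm excitation after 2 h LiveBLAzer loading; ME-180 NFkB-bla reporter cells exposed 5 h at 37 C to compounds with 10 pM TNF alpha final.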

Compound	activation	Potency
COc1cc2c(Oc3ccc4[nH]c(C)cc4c3F)ncnc2cc1OCCCN1CCCC1	inactive: 1.98%	–
c1ccc2c(CCNc3ccc(Nc4ccncc4)cc3)c[nH]c2c1	–	inconclusive: 1.66 µM [activator, full curve]
Nc1ncn([C@@H]2O[C@H](CO)[C@@H](O)[C@H]2O)c(=O)n1	inactive: 0.68%	–

assay: qHTS Assay for Identification of Small Molecule Antagonists for NFkB Signaling Pathway. (AID 624479; calls by dose curve; note: potency is the fitted concentration of half-maximal effect; for activity change, negative = inhibition: % is set by controls: 0 for no effect and ±100 for the full control effect); conditions: NFkB pathway reporter cell assay, antagonist mode; series mostly up to 38.3 µM; activity change, negative = inhibition: at the top concentration

Compound	Potency	activity change, negative = inhibition
COc1cc2c(Oc3ccc4[nH]c(C)cc4c3F)ncnc2cc1OCCCN1CCCC1	inconclusive: 21.1 µM [inhibitor, partial curve]	–
COC(=O)c1ccc2c(C(=Nc3ccc(N(C)C(=O)CN4CCN(C)CC4)cc3)c3ccccc3)c(O)[nH]c2c1	inconclusive: 21.1 µM [inhibitor, single point]	–
C[C@@H](Oc1cc(-c2cnn(C3CCNCC3)c2)cnc1N)c1c(Cl)ccc(F)c1Cl	inconclusive: 16.8 µM [inhibitor, partial curve]	–
C#Cc1cccc(Nc2ncnc3cc(OC)c(OCCCCCCC(=O)NO)cc23)c1	active: 16.8 µM	–
COc1cc2c(Nc3ccc(Br)cc3F)ncnc2cc1OCC1CCN(C)CC1	inconclusive: 16.8 µM [inhibitor, partial curve]	–
CCOc1cc(C=C2C(=O)N(c3ccccc3)N=C2C)cc(Cl)c1OCC(=O)OC	inconclusive: 26.6 µM [inhibitor, single point]	–
CC1(CN2CCC(n3c(=O)[nH]c4ccccc43)CC2)OCc2ccccc2-n2cccc21 (centres undefined)	inconclusive: 23.7 µM [inhibitor, partial curve]	–
CCOc1cc(N2CCC(O)CC2)ccc1Nc1ncc2c(n1)N(C)c1ccccc1C(=O)N2C	inconclusive: 29.8 µM [inhibitor, single point]	–
CC(C)Oc1cc(Nc2nc(N[C@@H](C)c3ccc(F)cn3)ncc2Cl)[nH]n1	active: 14.9 µM	–
Cc1c(C)c2c(c(C)c1O)CCC(C)(COc1ccc(CC3SC(=O)NC3=O)cc1)O2 (centres undefined)	inconclusive: 18.8 µM [inhibitor, single point]	–
COc1cccc(OC)c1-c1cc(C(=O)NC2(C(=O)O)C3CC4CC(C3)CC2C4)nn1-c1ccnc2cc(Cl)ccc12 (centres undefined)	active: 16.8 µM	–
C#Cc1cccc(Nc2ncnc3cc(OCCOC)c(OCCOC)cc23)c1	inconclusive: 16.8 µM [inhibitor, partial curve]	–
Cc1ccc(C(=O)Nc2cccc(C(F)(F)F)c2)cc1-c1ccc2nc(NCCN3CCOCC3)ncc2c1	active: 4.73 µM	–
CCCCc1nc2cc(C=CC(=O)NO)ccc2n1CCN(CC)CC	inconclusive: 3.35 µM [inhibitor, partial curve]	–
Cc1cc(SCc2sc(-c3ccc(C(F)(F)F)cc3)nc2C)ccc1OCC(=O)O	inconclusive: 26.6 µM [inhibitor, single point]	–
Cc1cc([C@@H](C)Nc2ccccc2C(=O)O)c2nc(N3CCOCC3)cc(=O)n2c1	–	inactive: 2.02%
Oc1cccc(-c2nc(N3CCOCC3)c3oc4ncccc4c3n2)c1	inconclusive: 11.9 µM [inhibitor, partial curve, poor fit]	–
CCN(CC)CCCCNc1ncc2cc(-c3cc(OC)cc(OC)c3)c(NC(=O)NC(C)(C)C)nc2n1	inconclusive: 21.1 µM [inhibitor, partial curve, poor fit]	–
Cc1ccc(C(=O)N(CCCN)[C@@H](c2nc3cc(Cl)ccc3c(=O)n2Cc2ccccc2)C(C)C)cc1	inconclusive: 29.8 µM [inhibitor, single point]	–
CN(C)CCN(C)C(=O)c1ccc(NC(=O)Nc2ccc(-c3nc(N4CCOCC4)c4ccn(CC(F)(F)F)c4n3)cc2)cc1	inconclusive: 18.8 µM [inhibitor, single point]	–
COc1ccccc1[C@H](c1cccc2ccccc12)[C@@](C)(C#N)C(=O)N1CCC(c2cccc(C(F)(F)F)c2)CC1	–	inactive: 9.05%
Fc1cc(-c2cccc3ncc(-c4cnn(C5CCNCC5)c4)nc23)cc(F)c1CN1CCOCC1	inconclusive: 26.6 µM [inhibitor, single point]	–
COc1ccc(-c2ccc3c(N4CCOCC4)nc(N4C[C@@H](C)O[C@@H](C)C4)nc3n2)cc1CO	–	inactive: -4.44%
CCC(C)n1ncn(-c2ccc(N3CCN(c4ccc(OCC5COC(Cn6cncn6)(c6ccc(Cl)cc6Cl)O5)cc4)CC3)cc2)c1=O (centres undefined)	–	inactive: -7.52%

A section from the list above:
Compound	Potency	activity change, negative = inhibition
C#Cc1cccc(Nc2ncnc3cc(OCCOC)c(OCCOC)cc23)c1	inconclusive: 16.8 µM [inhibitor, partial curve]	–
Cc1ccc(C(=O)Nc2cccc(C(F)(F)F)c2)cc1-c1ccc2nc(NCCN3CCOCC3)ncc2c1	active: 4.73 µM	–
CCCCc1nc2cc(C=CC(=O)NO)ccc2n1CCN(CC)CC	inconclusive: 3.35 µM [inhibitor, partial curve]	–
